For the assay, the system named is proteasome ChT-like activity in RPMI-8226 cells. Put plainly: Cell-based high-throughput screen of proteasome ChT-like activity (LLVY-R110). The arrangement: species or system human. To be noted: 3 µmol/L, 21 hours, then LLVY-R110 18 hours.

One molecule from article PMC11188874, “HDAC6 Inhibition Releases HR23B to Activate Proteasomes, Expand the Tumor Immunopeptidome and Amplify T-cell Antimyeloma Activity” (Cancer Research Communications, 2024) can be followed below.

Take `Nc1nc2ccc(OC(F)(F)F)cc2s1` [Riluzole]: the “Fold-Increase of proteasome ChT-like activity in the HTS” value is 1.3 fold.
